Results published in article doi:10.1101/2024.10.07.616967.
Results are given in words; binding and its absence hold for the method and conditions named. Binding seen in cells or lysates may run through a third protein. Some binding calls cover weakened binding; strength is not graded here.

By UniProt entry, the sequences of proteins in these tests, tags left out. Residues count along the entry.
UniProt Q70CQ3: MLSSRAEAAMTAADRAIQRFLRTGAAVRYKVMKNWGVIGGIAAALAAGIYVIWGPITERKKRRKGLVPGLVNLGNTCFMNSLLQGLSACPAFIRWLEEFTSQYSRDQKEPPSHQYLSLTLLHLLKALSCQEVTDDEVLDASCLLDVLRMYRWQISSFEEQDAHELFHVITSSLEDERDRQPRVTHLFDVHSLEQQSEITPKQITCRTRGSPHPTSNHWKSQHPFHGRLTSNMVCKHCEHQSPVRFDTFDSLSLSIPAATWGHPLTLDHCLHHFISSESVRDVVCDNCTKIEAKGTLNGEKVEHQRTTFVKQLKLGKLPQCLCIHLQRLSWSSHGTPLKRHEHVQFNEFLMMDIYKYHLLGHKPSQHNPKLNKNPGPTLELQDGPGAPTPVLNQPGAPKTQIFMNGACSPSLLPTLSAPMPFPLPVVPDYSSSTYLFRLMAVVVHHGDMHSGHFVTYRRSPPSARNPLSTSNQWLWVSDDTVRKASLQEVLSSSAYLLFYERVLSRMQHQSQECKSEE
UniProt O95202, residues 116-739: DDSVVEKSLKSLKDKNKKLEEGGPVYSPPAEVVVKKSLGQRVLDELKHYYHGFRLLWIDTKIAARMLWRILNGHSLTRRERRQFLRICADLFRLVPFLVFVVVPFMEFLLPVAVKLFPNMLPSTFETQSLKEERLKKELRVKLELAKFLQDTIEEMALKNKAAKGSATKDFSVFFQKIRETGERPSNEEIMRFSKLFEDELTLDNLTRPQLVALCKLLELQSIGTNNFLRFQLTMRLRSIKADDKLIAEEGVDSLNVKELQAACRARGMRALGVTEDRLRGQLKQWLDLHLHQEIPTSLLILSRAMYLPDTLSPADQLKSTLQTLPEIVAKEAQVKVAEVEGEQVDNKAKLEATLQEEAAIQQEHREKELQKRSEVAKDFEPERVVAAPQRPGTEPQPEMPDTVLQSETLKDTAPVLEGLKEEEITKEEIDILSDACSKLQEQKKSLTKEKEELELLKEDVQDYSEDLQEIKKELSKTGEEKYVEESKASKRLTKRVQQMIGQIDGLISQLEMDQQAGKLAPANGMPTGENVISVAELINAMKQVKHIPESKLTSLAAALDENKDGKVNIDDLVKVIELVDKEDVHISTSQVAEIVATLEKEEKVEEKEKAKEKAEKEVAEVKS
UniProt Q15388: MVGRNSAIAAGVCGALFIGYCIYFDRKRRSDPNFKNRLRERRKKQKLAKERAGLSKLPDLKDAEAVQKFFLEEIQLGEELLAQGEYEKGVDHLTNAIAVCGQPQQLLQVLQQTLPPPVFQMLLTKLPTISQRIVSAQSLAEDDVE

Tests used:
Flag-USP30 [1] = molecular target: Flag-USP30 (UniProt Q70CQ3); assay: proximity ligation
Flag-USP30 [2] = molecular target: Flag-USP30 (UniProt Q70CQ3); assay: co-IP
[3] = molecular target: LETM1, endogenous in SH-SY5Y cells (human (endogenous in SH-SY5Y)) (UniProt O95202); assay: co-IP

binding (Flag-USP30 [1]) | binding (Flag-USP30 [2]) | binding [3] | Substance
binds | binds | – | leucine-containing zipper and EF-hand transmembrane protein 1 (LETM1), endogenous in HEK293 cells (from UniProt O95202 116-739)
– | – | binds | TOMM20, endogenous in SH-SY5Y cells (from UniProt Q15388 1-145)
binds | – | – | TOMM20, endogenous in HEK293 cells (from UniProt Q15388 1-145)
